Measurements from publication PMC12013513.
These are yes or no findings as the source states them, for the method shown. Sequences can lack the tags named with a protein.

Chains of the proteins cited; added tags and fusions are not shown. Lines headed by an entry give the natural chain unless they say otherwise; changes in a name come on top. A line that says so, or that is headed by a name, gives the form on record, which may keep a tag or linker. Residues count along the entry.
10xHis-RHO-1^Q63L (constitutively active RHO-1, 1-188 AA) (Q22038, form named): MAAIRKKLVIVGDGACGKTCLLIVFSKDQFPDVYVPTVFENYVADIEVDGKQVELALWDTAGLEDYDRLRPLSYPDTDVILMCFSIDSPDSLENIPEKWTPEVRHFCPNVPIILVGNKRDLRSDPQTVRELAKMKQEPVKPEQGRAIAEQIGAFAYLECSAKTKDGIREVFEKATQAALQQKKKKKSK

Experiments:
[1] = target: T1, GST-ANI-1^C-term-RBM (681-1159 AA, A789D, E807K) (C. elegans) (UniProt Q9XTT4); assay: pull-down; ~4 μg GST-ANI-1 fragment on Glutathione Sepharose beads mixed with ~4 μg purified 10xHis-RHO-1 in 300 μl binding buffer (20 mM Tris pH 7.4, 150 mM NaCl, 5 mM MgCl2, 0.1% Triton X-100, 1 mM DTT) with 1 mM GTP, 4°C, 1.5 h; bound RHO-1 detected by anti-His immunoblot; both purified
T1 sequence: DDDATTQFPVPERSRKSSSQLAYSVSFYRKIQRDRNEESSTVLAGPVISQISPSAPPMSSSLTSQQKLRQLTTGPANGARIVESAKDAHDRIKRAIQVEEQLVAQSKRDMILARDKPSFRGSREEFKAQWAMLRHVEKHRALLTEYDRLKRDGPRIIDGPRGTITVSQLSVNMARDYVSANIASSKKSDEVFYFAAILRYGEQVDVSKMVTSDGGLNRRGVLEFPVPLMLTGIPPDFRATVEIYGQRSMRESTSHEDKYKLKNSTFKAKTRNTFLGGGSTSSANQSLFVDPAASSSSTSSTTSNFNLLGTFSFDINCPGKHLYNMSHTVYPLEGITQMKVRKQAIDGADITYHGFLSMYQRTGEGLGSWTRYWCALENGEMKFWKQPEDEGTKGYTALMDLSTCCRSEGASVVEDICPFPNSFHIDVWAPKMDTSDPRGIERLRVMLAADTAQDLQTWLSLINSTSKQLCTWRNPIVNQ

[2] = target: T2, GST-ANI-1^Linker (460-775 AA) (C. elegans) (UniProt Q9XTT4); assay: as above
T2 sequence: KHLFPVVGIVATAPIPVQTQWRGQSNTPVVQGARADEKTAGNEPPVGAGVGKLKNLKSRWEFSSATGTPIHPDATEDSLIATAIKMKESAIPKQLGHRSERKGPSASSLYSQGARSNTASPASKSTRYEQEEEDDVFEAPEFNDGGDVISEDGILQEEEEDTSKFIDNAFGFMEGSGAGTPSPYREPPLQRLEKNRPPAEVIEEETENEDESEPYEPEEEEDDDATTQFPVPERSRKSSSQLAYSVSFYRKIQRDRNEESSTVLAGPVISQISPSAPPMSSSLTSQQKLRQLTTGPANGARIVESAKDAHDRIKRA

## 10xHis-RHO-1^Q63L (constitutively active RHO-1, 1-188 AA) (from UniProt Q22038 1-188) (domain or fragment)
[1]
  binding: no binding (tested: ~4 μg of each protein in 300 μl)
[2]
  binding: no binding (tested: ~4 μg of each protein in 300 μl)
